End groups of sequences in plain letters are not given here. Strings that start with PEPTIDE1 are HELM notation: dots part the residues, brackets hold end groups and non-standard residues.

Data on 4 substances can be found in patent US7390873B2 (University of British Columbia, priority 1995, dated 2008).

The data set in a line: general procedure: peptide synthesis; copoly(styrene-divinylbenzene) containing 0.1-1.0 mMol amines/g polymer. Conditions: whole synthesis.
Turning to ILKPWKWPWWPWRRKK, the “purity (crude or final not stated)” value is given as “approximately 80% pure”.

Turning to ILPWKWPWWPWRR, the “purity (crude or final not stated)” value is reported as “at least 99% pure”. To “PEPTIDE1{I.L.K.K.W.P.W.W.P.W.K.W.K.K}$$$$V2.0” belongs “at least 99% pure”. On to “PEPTIDE1{I.L.K.K.W.P.W.W.P.W.R.R.K}$$$$V2.0”, for which the “purity (crude or final not stated)” value is “at least 99% pure”.
